The values below come from article PMC7819943, “Rice protein-binding microarrays: a tool to detect cis-acting elements near promoter regions in rice”.

Amino acid sequences for entries named in this document (tags omitted).
UniProt Q0JBA9, entry or part of it: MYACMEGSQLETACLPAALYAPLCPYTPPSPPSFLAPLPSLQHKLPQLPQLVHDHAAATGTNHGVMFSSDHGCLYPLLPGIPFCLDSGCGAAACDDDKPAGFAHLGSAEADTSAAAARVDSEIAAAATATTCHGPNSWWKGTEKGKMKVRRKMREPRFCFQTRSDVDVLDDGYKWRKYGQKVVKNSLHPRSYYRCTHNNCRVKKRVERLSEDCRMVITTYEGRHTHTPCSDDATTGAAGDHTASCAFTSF

Some of the results follow.

In the test the target is OsWRKY34 (Oryza sativa, UniProt Q0JBA9 1-250). Description: protein-binding microarray (RPBM); PBS, 2% BSA, 51.3 ng/ul salmon testes DNA, 50 uM zinc acetate, 200 nM TF, 25 C, 1 h; high values mean tight binding. The conditions noted are these: protein: recombinant; tags: N-terminal polyhistidine and DsRed monomer fusion (pET32a); label: CyDye5-dUTP incorporated in the synthesized complementary strand; 3' TTTTT single-stranded linker to array surface; dsDNA, one strand shown. Summed up:
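Binding signal is reported as fluorescence intensity per feature (arbitrary units) from an Axon 4000B scanner. Incubation used 200 nM of each Ni–NTA-purified, N-terminally polyhistidine- and DsRed-fused transcription factor from E. coli BL21-CodonPlus on a double-stranded custom Agilent array for 1 h at 25 °C, with 50 µM zinc acetate in the buffer, followed by washing.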
Regarding “GTCACAGGTGCTTATTTGTGCTACCATTTAGTCCATTGTACGGAGTCACCTAGTGCAG”, the binding signal was 10800 fluorescence intensity (a.u.). With “TTTATGCCTGTTCTGTTTATTTGTTCTTAAGTGCTTTGCCCGGAGTCACCTAGTGCAG”, the binding signal was 10500 fluorescence intensity (a.u.). In the case of “GGCTGTGTTTATTGGCTGTGTTTAGTTCCCTTCAAACTTCCGGAGTCACCTAGTGCAG”, the binding signal is 9610 fluorescence intensity (a.u.). To “GTTCTCTCATGCATTGCCTCGTTTTTCTCTATAGACTATCCGGAGTCACCTAGTGCAG” belongs 9480 fluorescence intensity (a.u.). Consider “TTTTACCTCTCTCACCATTAACTCTTGCTACATTAGACTTCGGAGTCACCTAGTGCAG”, for which the binding signal is 9670 fluorescence intensity (a.u.). Turning to “TCGGTCGGGTCGGGTCGGGTCGCGTCGCGTGGGCTGCATGCGGAGTCACCTAGTGCAG”, the binding signal was 12200 fluorescence intensity (a.u.). Regarding “AACCCGTCTGTCCATCCTTTCATGACAATAGTATTTTATTCGGAGTCACCTAGTGCAG”, the binding signal was 9770 fluorescence intensity (a.u.). With “GGTGTGGACCCTTTTCCGTCCCAATTTACACTTCCGTACCCGGAGTCACCTAGTGCAG”, the binding signal was 8550 fluorescence intensity (a.u.). “AATTTCCTCACATCGACCGTTGACTCATCCACTTCACTGCCGGAGTCACCTAGTGCAG”: the binding signal was 16200 fluorescence intensity (a.u.).

On to “AGGATTTTATTATTTTTCCGGCTCGAATTGCCACGTAAGCCGGAGTCACCTAGTGCAG”, for which the binding signal is 8080 fluorescence intensity (a.u.). With “TATAAAGTGGTCCACCTCTCCCCATCCACTCGTCCCTTTCCGGAGTCACCTAGTGCAG”, the binding signal was 9000 fluorescence intensity (a.u.).

“TAAACTCCATATTATATAACATCCCCAACTATGCTGTTTTCGGAGTCACCTAGTGCAG”: the binding signal is 8150 fluorescence intensity (a.u.). To “ACCTCTGTTTTCATGGGCTAGTGGCCCAGTACCTCACTGCCGGAGTCACCTAGTGCAG” belongs 8930 fluorescence intensity (a.u.).

As for “AACTCTCTCCGCTCGCACGCCGTTCCATATATAAGACCACCGGAGTCACCTAGTGCAG”, the binding signal was 9840 fluorescence intensity (a.u.).

In the case of “CGCAATCCGCCGCTTGCCTTCGCCGCCGCCCGCGCTGAATCGGAGTCACCTAGTGCAG”, the binding signal was 9490 fluorescence intensity (a.u.). Consider “GCCCCTCACCTCACCTCACCTCTCCATCCACGATAATATCCGGAGTCACCTAGTGCAG”, for which the binding signal is 8210 fluorescence intensity (a.u.). Regarding “CCATCTATATATTAAAGCTGCGTCCGCCACTGCTTTCTTCCGGAGTCACCTAGTGCAG”, the binding signal is 11000 fluorescence intensity (a.u.). With “GAATTAGACCATTTAACTCGTCGCCACCACCACCAGTAAACGGAGTCACCTAGTGCAG” the figure was 11500 fluorescence intensity (a.u.); with “GACGACACGAGCACTCCCAGCCGCGAACACCGCAAAATCACGGAGTCACCTAGTGCAG”, 10200 fluorescence intensity (a.u.); with “GCTCGCGTAATCACGTGTCCGCCTGGTGTATGTCCCTCTCCGGAGTCACCTAGTGCAG”, 9200 fluorescence intensity (a.u.). Turning to “TTCTCTCTCTATCTCTCATTTATATATTTAATATATTTGTCGGAGTCACCTAGTGCAG”, the binding signal was 9250 fluorescence intensity (a.u.).

“GAGCATTATTGTATTTCTAGACCATGTAGGCTATGACACACGGAGTCACCTAGTGCAG”: the binding signal is 8470 fluorescence intensity (a.u.). Take “TATGGTGAGTCTCTTCTCGTGTTCCTTTTGACTTGTAGATCGGAGTCACCTAGTGCAG”: the binding signal is 10600 fluorescence intensity (a.u.). With “TACTTATCCGATTTATGATCCGATTATGTCGTTGTTATTACGGAGTCACCTAGTGCAG” the figure was 8540 fluorescence intensity (a.u.). Take “GAATAAATATCTCTATTCCTGCGTCATCCCCATCTCTCGCCGGAGTCACCTAGTGCAG”: the binding signal is 8770 fluorescence intensity (a.u.).

Turning to “AATCTACACTAATTCTTCTGGTCTACACATTAAGTTATGACGGAGTCACCTAGTGCAG”, the binding signal was 8670 fluorescence intensity (a.u.).

On to “AGCTCGCCCGCACCGCTATGCTCCGTCCGCCACCCTTGCTCGGAGTCACCTAGTGCAG”, for which the binding signal is 8280 fluorescence intensity (a.u.).

With “ATCATACTGTTGTTTGCTACTCCCACATATATATAACTATCGGAGTCACCTAGTGCAG”, the binding signal is 8280 fluorescence intensity (a.u.). “TACACGCACCGTCCCCTTCCTGGGCTCCTCTTCGTCTTGCCGGAGTCACCTAGTGCAG”: the binding signal is 9520 fluorescence intensity (a.u.). Consider “TTCTTTGTTACGCTGTAGAAGTGGATGTTTCTGTTGTAACCGGAGTCACCTAGTGCAG”, for which the binding signal was 10200 fluorescence intensity (a.u.).

Turning to “ACTCCTGTAATAATTTTAGCATTCCTATCTTGGCAACACTCGGAGTCACCTAGTGCAG”, the binding signal is 9410 fluorescence intensity (a.u.). For “GTGTTTATATGGGTGAGTCTGTGTTTGTATTGTATTTCTCCGGAGTCACCTAGTGCAG”, the binding signal was 12600 fluorescence intensity (a.u.). Regarding “ATGGTCACACATCCAATGGCTTGCGCCCAACCTTGCCGCACGGAGTCACCTAGTGCAG”, the binding signal is 8800 fluorescence intensity (a.u.).

With “GCCACGCCGTGGACACGACTCCTGATTCACTATCGAGCTCCGGAGTCACCTAGTGCAG”, the binding signal was 8910 fluorescence intensity (a.u.). Turning to “ATCTTGCTACTTCCTCCGTTTCACAATGTAAGTCATTCTACGGAGTCACCTAGTGCAG”, the binding signal was 9930 fluorescence intensity (a.u.). “ATAATCTTCATGTTTCTTTCAAACCTTCTGTACTTAGATGCGGAGTCACCTAGTGCAG”: the binding signal is 9200 fluorescence intensity (a.u.). For “ATTGCCCACTTCGCCGCCCGTTTCGGTTTCCCTTTCTTCACGGAGTCACCTAGTGCAG”, the binding signal is 10000 fluorescence intensity (a.u.). Consider “GGCTTCCGCCCTTGCACACTCTTCGGTGGGGTGGTGACGCCGGAGTCACCTAGTGCAG”, for which the binding signal is 9870 fluorescence intensity (a.u.). To “TCCGGACGCTCGGGTAGGTGAGGGAGGGAGGGAGGAGATGCGGAGTCACCTAGTGCAG” belongs 9000 fluorescence intensity (a.u.); to “GTTTCCTCCGATTTTTCTCTTCGGCCTGACCGCCTGAGGTCGGAGTCACCTAGTGCAG”, 9340 fluorescence intensity (a.u.). For “TTAAGTCAACCTCCACAGATTCCTGCCACTCCATTCTATACGGAGTCACCTAGTGCAG”, the binding signal is 8600 fluorescence intensity (a.u.). On to “GTGGCCTATTTAGTACGAGTACTTTTCTTCCCAACTTATCCGGAGTCACCTAGTGCAG”, for which the binding signal was 8660 fluorescence intensity (a.u.).
